# Source: PubChem BioAssay AID1487 (National Center for Advancing Translational Sciences (NCATS), 2009)
# Values joined by “and” are separate entries in the source; they are usually repeats but may differ in a detail not shown here. Equal entries are not always repeated. This is one part of the list. These are further read-outs of the screen, such as a control signal, another cell line or another target. No call is given for them. The list favours compounds with an active or inconclusive main result. Words in brackets tell the shape of the fitted curve; partial curves, single points and poor fits give uncertain potencies.
# Assay: qHTS Assay for Modulators of Lamin A Splicing
# Details: HeLa LMNA splicing GFP/RFP minigene ratio, 48 h
# How it was run: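 Read-out is the ratio of GFP to DsRed2 object intensity, acquired by 488 nm laser-scanning cytometry on HeLa lamin A-EGFP minigene reporter cells. Compound incubation 48 hrs at 37 °C in Opti-MEM with 2% FBS; DMSO 0.5% final.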
# [1] = measured here: GFP splicing reporter channel
# [2] = measured here: RFP viability control channel
Compound,AC50 [1],AC50 [2]
O=C(CN(C1CCCCC1)S(=O)(=O)c1ccc(Cl)cc1)NCc1ccncc1,"20 µM [rising, single point]",–
O=C(NC1CCCC1)c1ccc(CSc2nc3cccnc3n2Cc2ccccc2)cc1,"0.398 µM [falling, partial curve]","0.0282 µM [falling, full curve, poor fit]"
CN(Cc1cccnc1)Cc1cn(C)nc1-c1cccc(Cl)c1,–,"2.24 µM [falling, full curve, poor fit]"
Cc1ccc(NCC(=O)N/N=C\C(Br)=C\c2ccccc2)cc1,"22.4 µM [falling, single point]","25.1 µM [falling, single point]"
CC1CCC2C(C)(C)C3CC12CC[C@]3(C)O (some centres not stated),–,"0.631 µM [falling, full curve]"
Cc1onc(-c2ccccc2Cl)c1C(=O)Oc1cc(N)n(S(=O)(=O)c2ccc(F)cc2)n1,"0.501 µM [falling, full curve]","0.708 µM [falling, full curve]"
COc1ccc(C(c2sc3ncnn3c2O)N2CC(C)OC(C)C2)cc1OC (configuration not stated),"11.2 µM [falling, partial curve, poor fit]","8.91 µM [falling, partial curve]"
Cc1cccc(CNc2cc(-c3ccoc3)ncn2)c1,"10 µM [falling, partial curve]",–
S=C(Nc1cccc(Cl)c1)NC1CC2CCCC(C1)N2C1CCCC1 (configuration not stated),–,"5.01 µM [rising, single point]"
Cc1c(Cl)c([N+](=O)[O-])nn1Cc1ccc(C(=O)Nc2ccc(Cl)cn2)o1,"35.5 µM [rising, single point]","35.5 µM [rising, single point]"
CC1CCc2nc(/C(C#N)=C/c3cccnc3)sc2C1 (configuration not stated),–,"10 µM [rising, single point]"
CCc1ccc(NC(=S)N(Cc2ccc(Cl)cc2)Cc2ccc(C(=O)O)cc2)cc1,"0.0355 µM [falling, full curve, poor fit]","4.47 µM [falling, partial curve, poor fit]"
CC(=O)Nc1cccc(C(=O)/C=C/c2cccs2)c1,–,"11.2 µM [rising, partial curve]"
Nc1nc2nccc(-c3ccco3)n2n1,"11.2 µM [falling, partial curve, poor fit]",–
CN(C)c1ccc(NC(=O)Nc2ccc3snnc3c2)cc1,–,"12.6 µM [rising, single point]"
CCCOc1ccc2nc(NC(=O)OC)[nH]c2c1,–,"4.47 µM [rising, full curve]"
O=C1/C(=C\c2cccs2)N=C(c2cccs2)N1Nc1ccccc1,–,"15.8 µM [rising, single point]"
Cc1ccc(C)c(NC(=O)c2cc(=O)c3ccccc3o2)c1,"15.8 µM [rising, single point]",–
CC(=O)Nc1nc(SCC(=O)Nc2nnc(C)s2)[nH]c(=O)c1NC(=O)c1cccs1,"31.6 µM [rising, partial curve, poor fit]",–
CN1CCN(c2ncc3nc(-c4ccc(F)cc4)c(=O)n(Cc4cccs4)c3n2)CC1,"20 µM [falling, single point]","17.8 µM [falling, single point]"
CC(=O)c1ccc(NS(=O)(=O)c2ccc(CC(C)C)cc2)cc1,"8.91 µM [rising, partial curve, poor fit]","11.2 µM [rising, partial curve]"
CC(=O)c1ccc(N2CCN(C(=S)Nc3cccc(Cl)c3)CC2)cc1,"8.91 µM [rising, partial curve]","11.2 µM [rising, partial curve]"
O=C(COC(=O)c1cncc(Br)c1)NC1CCCC1,–,"5.62 µM [falling, full curve, poor fit]"
O=C(NCc1cccs1)c1cc(S(=O)(=O)N2CCCCC2)ccc1Cl,–,"25.1 µM [rising, partial curve, poor fit]"
CC(C)n1c(C(=O)OCC(=O)NCc2ccc3c(c2)OCO3)cc2sccc21,"12.6 µM [rising, partial curve]","3.16 µM [rising, full curve]"
COc1ccccc1C(=O)N=C1NC(=O)CC2C(=O)NCCN12 (configuration not stated),"0.631 µM [rising, partial curve]",–
O=C(NCc1ccccc1)Nc1cccn(Cc2ccccc2F)c1=O,–,"14.1 µM [rising, partial curve, poor fit]"

Compound,AC50 [1],AC50 [2]
CN1/C(=C\C(=O)CN2C(=O)NC3(CCCCCC3)C2=O)C(C)(C)c2ccccc21,–,"25.1 µM [rising, single point]"
Cc1ccc(Cl)cc1N1CCN(c2ncnc3c2nc2n3CCCCC2)CC1,"35.5 µM [falling, single point]","35.5 µM [falling, single point]"
CCOC(=O)C1=C(C)NC(C)=C(C(=O)OC)C1c1cccc([N+](=O)[O-])c1 (configuration not stated),"0.000891 µM [falling, full curve, poor fit]","12.6 µM [rising, partial curve, poor fit] and 3.98 µM [falling, single point]"
Cc1cccc(COCC(Cc2ccccc2)N2CCN(C(=O)c3ccc(Cl)c(Cl)c3)CCC2=O)c1 (configuration not stated),"35.5 µM [rising, single point]","31.6 µM [rising, single point]"
COc1ccc(CCNS(=O)(=O)c2ccc(S(=O)(=O)N3CCCC3)cc2)cc1OC,"12.6 µM [rising, partial curve, poor fit]","20 µM [rising, single point]"
Cc1ccc(C(=O)/C=C/N(C)C)o1,"0.112 µM [rising, full curve, poor fit]",–
Cc1nn(C(=O)Cn2ccc([N+](=O)[O-])n2)c(C)c1Br,"5.62 µM [falling, single point]","5.62 µM [falling, single point]"
Cc1noc(/C=C/N(C)C)c1S(=O)(=O)N1CCc2ccccc21,–,"8.91 µM [rising, partial curve]"
CC1SCCN1S(=O)(=O)c1ccc2ccccc2c1 (configuration not stated),"14.1 µM [rising, single point]","11.2 µM [rising, partial curve]"
CCc1ccc(CNCc2ccc(F)cc2)cc1,–,"35.5 µM [rising, single point]"
COc1ccc(N(C(=O)CCl)C(C(=O)NC2CCCCC2)c2cccnc2)cc1 (configuration not stated),–,"2.82 µM [rising, partial curve]"
O=c1c(C(c2ccccc2)c2c(O)sc3ccccc3c2=O)c(O)sc2ccccc12,"0.0891 µM [falling, full curve]","15.8 µM [falling, partial curve]"
CCCCS(=O)CC(COc1ccc(Cl)cc1)OC(=O)c1ccccc1 (configuration not stated),–,"22.4 µM [rising, single point]"
Cc1ccc(NC(=O)C2CC(=O)N(Cc3ccccc3)C2)cc1S(=O)(=O)N1CCCCCC1 (configuration not stated),–,"35.5 µM [rising, single point]"
CCOC(=O)N1CCN(CCC(=O)Nc2ccc(OC(F)(F)F)cc2)CC1,–,"25.1 µM [rising, single point]"
COc1cc(CNc2nc(C)c([N+](=O)[O-])c(C)c2C#N)cc(OC)c1OC,"7.08 µM [rising, partial curve]","14.1 µM [rising, partial curve]"
CN(C)S(=O)(=O)c1ccc2c(c1)nc(CCC(=O)NCC1CCCCC1)n2C,"10 µM [rising, partial curve, poor fit]","11.2 µM [rising, single point]"
COc1ccc(CS(=O)(=O)/C(Cl)=C(/Cl)C(=O)Nc2ccc(OC)nc2)cc1,"3.16 µM [falling, full curve]","7.08 µM [falling, full curve]"
Fc1cccc(CSc2nc3ncccc3[nH]2)c1,"3.55 µM [rising, partial curve, poor fit]","1.41 µM [rising, full curve, poor fit]"
Cc1nc2c(OCc3ccccc3)cccn2c1CC#N,"2 µM [falling, partial curve, poor fit]",–
O=C(CSc1nc2ccccc2c(=O)n1-c1ccccc1)NCc1ccco1,–,"0.00891 µM [rising, full curve, poor fit]"
Cc1ccc(S(=O)(=O)N2CCCC(C(=O)N(Cc3cccs3)C3CC3)C2)cc1 (configuration not stated),"0.158 µM [rising, full curve, poor fit]","20 µM [rising, partial curve]"
COc1ccc(C(=O)NCc2ccc3c(c2)CCN3C(=O)c2ccc(C)cc2)cc1,"7.08 µM [falling, partial curve, poor fit]","2.51 µM [falling, partial curve, poor fit]"
O=C(CCCOc1ccc(Cl)cc1Cl)N/N=C/c1ccccc1O,–,"8.91 µM [rising, partial curve, poor fit]"
Cc1ccc(NC(=O)CN(C)CC(=O)Nc2cccc(F)c2)cc1[N+](=O)[O-],"5.01 µM [falling, partial curve, poor fit]",–
CC(=O)c1cccc(NC(=O)C2CCN(S(=O)(=O)c3ccc4[nH]c(=O)ccc4c3)CC2)c1,"0.0398 µM [falling, full curve]","0.0398 µM [falling, full curve]"

# Shown as tab-separated lines: entries from further up.
Compound	AC50 [1]	AC50 [2]
CN1/C(=C\C(=O)CN2C(=O)NC3(CCCCCC3)C2=O)C(C)(C)c2ccccc21	–	25.1 µM [rising, single point]
Cc1ccc(Cl)cc1N1CCN(c2ncnc3c2nc2n3CCCCC2)CC1	35.5 µM [falling, single point]	35.5 µM [falling, single point]
CCOC(=O)C1=C(C)NC(C)=C(C(=O)OC)C1c1cccc([N+](=O)[O-])c1 (configuration not stated)	0.000891 µM [falling, full curve, poor fit]	12.6 µM [rising, partial curve, poor fit] and 3.98 µM [falling, single point]
Cc1cccc(COCC(Cc2ccccc2)N2CCN(C(=O)c3ccc(Cl)c(Cl)c3)CCC2=O)c1 (configuration not stated)	35.5 µM [rising, single point]	31.6 µM [rising, single point]
